Only a part of the results on these compounds is given; other tests are left out. Certain results were filed several times, with different values. The list is limited to them. The source may hold further records. The records of an entry differ for a reason that is not stated; some may be repeats, others may stem from another dose, organism or construct than stated.
How the values were obtained:
[1] = test system: Fibroblast; experiment: Multiplex assay against human fibroblast; assay type: toxicity, cell-based
[2] = test system: U2OS; experiment: Multiplex assay against U2OS; assay type: toxicity, cell-based; details: human

## CC(=O)N1CCc2ccc(N(C(=O)/C=C/c3cccc(C#N)c3)C3CCN(CCC4CCCC4)CC3)cc21
[1]; 0 h, 1 µM
  Population Healthy Nuclei (%): 34% and 72%
  Population Pyknosed Nuclei (%): 33% and 9%
  Total Cell Count: 189 and 90
[1]; 0 h, 10 µM
  Population Fragmented Nuclei (%): 42% and 20%
  Population Healthy Nuclei (%): 20% and 60%
  Population Membrane Permeable-Phenotype (%): 5% and 2%
  Population Tubulin-Different-Phenotype (%): 11% and 27%
[1]; 12 h, 1 µM
  Population Pyknosed Nuclei (%): 37% and 12%
  Population Tubulin-Different-Phenotype (%): 75% and 13%
[1]; 12 h, 10 µM
  Population Fragmented Nuclei (%): 45% and 6%
  Population Healthy Nuclei (%): 25% and 73%
  Population Hoechst High Intensity Objects (%): 16% and 6%
[1]; 24 h, 1 µM
  Population Fragmented Nuclei (%): 27% and 9%
  Population Membrane Permeable-Phenotype (%): 16% and 2%
  Population Mitochondria Different-Phenotype (%): 29% and 7%
  Population Tubulin-Different-Phenotype (%): 85% and 20%
[1]; 24 h, 10 µM
  Population Fragmented Nuclei (%): 44% and 12%
  Population Hoechst High Intensity Objects (%): 23% and 4%
[1]; 48 h, 1 µM
  Population Mitochondria Different-Phenotype (%): 12% and 2%
  Total Cell Count: 236 and 117
[1]; 48 h, 10 µM
  Population Hoechst High Intensity Objects (%): 16% and 36%
  Population Membrane Permeable-Phenotype (%): 3% and 10%
  Population Mitochondria Different-Phenotype (%): 35% and 75%
  Total Cell Count: 200 and 84
[2]; 0 h, 1 µM
  Population Membrane Permeable-Phenotype (%): 5% and 2%
[2]; 0 h, 10 µM
  Population Membrane Permeable-Phenotype (%): 5% and 2%
  Population Mitochondria Different-Phenotype (%): 22% and 8%
  Total Cell Count: 310 and 53
[2]; 12 h, 1 µM
  Population Membrane Permeable-Phenotype (%): 6% and 2%
  Population Mitochondria Different-Phenotype (%): 49% and 18%
  Population Tubulin-Different-Phenotype (%): 61% and 13%
[2]; 12 h, 10 µM
  Population Membrane Permeable-Phenotype (%): 24% and 63%
  Total Cell Count: 54 and 269
[2]; 24 h, 1 µM
  Population Membrane Permeable-Phenotype (%): 5% and 2%
  Population Mitochondria Different-Phenotype (%): 50% and 7%
  Population Tubulin-Different-Phenotype (%): 43% and 20%
[2]; 24 h, 10 µM
  Population Membrane Permeable-Phenotype (%): 22% and 88%
  Total Cell Count: 60 and 302
[2]; 48 h, 1 µM
  Population Pyknosed Nuclei (%): 8% and 19%
[2]; 48 h, 10 µM
  Population Membrane Permeable-Phenotype (%): 98% and 47%
  Population Mitotic Cells (%): 6% and 35%
  Total Cell Count: 383 and 73

From ChEMBL document CHEMBL4689842, “EUbOPEN Chemogenomics Library wave 1” (2021)
